This assay addresses T1, V5-tagged SCHAD (WT SCHAD-V5) (UniProt Q16836).
T1 sequence: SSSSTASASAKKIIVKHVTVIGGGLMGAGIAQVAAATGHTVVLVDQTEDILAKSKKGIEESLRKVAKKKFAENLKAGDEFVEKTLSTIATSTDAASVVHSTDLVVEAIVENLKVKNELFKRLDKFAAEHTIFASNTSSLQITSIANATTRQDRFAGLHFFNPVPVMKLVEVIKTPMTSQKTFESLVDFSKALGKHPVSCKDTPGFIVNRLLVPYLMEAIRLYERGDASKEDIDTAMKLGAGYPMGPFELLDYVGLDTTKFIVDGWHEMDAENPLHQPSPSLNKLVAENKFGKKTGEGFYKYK
Description: affinity purification with mass spectrometry; SCHADKO HEK293 cells transfected with WT SCHAD-V5 or Δ1–12 SCHAD-V5, crosslinked; immunoprecipitation with anti-V5, mouse IgG2a as negative control; LC-ESI-MS, two technical replicates.

Chains of the proteins cited; added tags and fusions are not shown. Residues count along the entry.
UniProt P00367, residues 54-558: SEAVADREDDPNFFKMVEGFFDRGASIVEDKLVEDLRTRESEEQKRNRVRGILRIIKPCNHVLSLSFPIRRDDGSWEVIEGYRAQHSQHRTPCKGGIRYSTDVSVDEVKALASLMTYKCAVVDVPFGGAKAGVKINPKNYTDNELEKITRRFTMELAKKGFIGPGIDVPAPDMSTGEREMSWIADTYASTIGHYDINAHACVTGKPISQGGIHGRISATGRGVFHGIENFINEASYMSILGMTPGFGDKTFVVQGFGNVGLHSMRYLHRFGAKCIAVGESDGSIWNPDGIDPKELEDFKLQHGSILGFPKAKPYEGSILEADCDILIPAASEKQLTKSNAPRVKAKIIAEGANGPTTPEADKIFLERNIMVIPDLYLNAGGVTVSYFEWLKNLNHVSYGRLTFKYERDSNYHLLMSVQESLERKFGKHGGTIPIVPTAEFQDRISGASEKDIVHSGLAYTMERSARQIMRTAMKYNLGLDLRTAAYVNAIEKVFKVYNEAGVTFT

No constants are given. Whether binding was seen depends on the method and setting. In cells and extracts the contact can be indirect. A yes stands for co-enrichment or nearness to the bait. Other partners may have been found. Where a sequence is shown, tags or fusion partners need not be part of it.

Regarding “endogenous glutamate dehydrogenase (GDH) of SCHADKO HEK293 cells (from UniProt P00367 54-558) (enzyme)”, the binding entry is “binds”.

B1: endogenous keratin 18 (K18) of SCHADKO HEK293 cells (protein, UniProt P05783 1-430)
chain: MSFTTRSTFSTNYRSLGSVQAPSYGARPVSSAASVYAGAGGSGSRISVSRSTSFRGGMGSGGLATGIAGGLAGMGGIQNEKETMQSLNDRLASYLDRVRSLETENRRLESKIREHLEKKGPQVRDWSHYFKIIEDLRAQIFANTVDNARIVLQIDNARLAADDFRVKYETELAMRQSVENDIHGLRKVIDDTNITRLQLETEIEALKEELLFMKKNHEEEVKGLQAQIASSGLTVEVDAPKSQDLAKIMADIRAQYDELARKNREELDKYWSQQIEESTTVVTTQSAEVGAAETTLTELRRTVQSLEIDLDSMRNLKASLENSLREVEARYALQMEQLNGILLHLESELAQTRAEGQRQAQEYEALLNIKVKLEAEIATYRRLLEDGEDFNLGDALDSSNSMQTIQKTTTRRIVDGKVVSETNDTKVLRH
Turning to B1, the binding result is “binds”.

The values are drawn from paper PMC12139081.
